From the supplement of paper PMC11732987, “Enantioselective OTUD7B fragment discovery through chemoproteomics screening and high-throughput optimisation” (Communications Chemistry, 2025)
Some of the results follow. The data scatter; read single values as rough.

By UniProt entry, the sequences of proteins in these tests, tags left out. Where a name states a change or a piece, a line headed by the entry shows the natural chain unless it says otherwise. Residues count along the entry.
UniProt Q9Y3P9: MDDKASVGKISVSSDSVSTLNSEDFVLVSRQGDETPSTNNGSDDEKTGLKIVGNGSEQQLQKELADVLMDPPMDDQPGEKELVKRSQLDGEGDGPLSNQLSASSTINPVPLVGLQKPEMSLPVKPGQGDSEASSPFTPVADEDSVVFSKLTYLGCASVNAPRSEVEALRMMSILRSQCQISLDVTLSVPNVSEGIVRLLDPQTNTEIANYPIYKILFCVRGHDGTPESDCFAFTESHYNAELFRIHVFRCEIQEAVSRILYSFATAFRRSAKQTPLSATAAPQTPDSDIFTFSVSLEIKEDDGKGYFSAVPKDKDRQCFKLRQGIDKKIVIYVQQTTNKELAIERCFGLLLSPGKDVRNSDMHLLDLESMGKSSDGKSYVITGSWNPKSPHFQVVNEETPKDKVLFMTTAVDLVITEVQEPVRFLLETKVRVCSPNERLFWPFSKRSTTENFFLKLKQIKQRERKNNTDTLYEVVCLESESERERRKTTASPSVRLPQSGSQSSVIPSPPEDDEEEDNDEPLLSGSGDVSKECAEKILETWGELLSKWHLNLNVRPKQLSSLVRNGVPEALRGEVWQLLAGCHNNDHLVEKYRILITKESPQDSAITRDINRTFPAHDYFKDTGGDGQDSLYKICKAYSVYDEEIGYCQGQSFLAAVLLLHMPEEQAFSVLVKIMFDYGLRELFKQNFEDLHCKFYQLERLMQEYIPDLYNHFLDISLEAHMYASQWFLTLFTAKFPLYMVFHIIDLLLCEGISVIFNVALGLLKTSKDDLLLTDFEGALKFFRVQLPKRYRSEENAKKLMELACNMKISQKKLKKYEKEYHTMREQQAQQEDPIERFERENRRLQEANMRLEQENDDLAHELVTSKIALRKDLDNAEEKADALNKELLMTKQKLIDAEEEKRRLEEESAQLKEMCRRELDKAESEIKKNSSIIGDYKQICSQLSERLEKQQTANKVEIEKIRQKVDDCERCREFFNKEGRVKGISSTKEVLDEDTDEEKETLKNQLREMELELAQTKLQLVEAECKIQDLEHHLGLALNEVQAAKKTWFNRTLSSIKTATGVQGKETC
UniProt Q14997: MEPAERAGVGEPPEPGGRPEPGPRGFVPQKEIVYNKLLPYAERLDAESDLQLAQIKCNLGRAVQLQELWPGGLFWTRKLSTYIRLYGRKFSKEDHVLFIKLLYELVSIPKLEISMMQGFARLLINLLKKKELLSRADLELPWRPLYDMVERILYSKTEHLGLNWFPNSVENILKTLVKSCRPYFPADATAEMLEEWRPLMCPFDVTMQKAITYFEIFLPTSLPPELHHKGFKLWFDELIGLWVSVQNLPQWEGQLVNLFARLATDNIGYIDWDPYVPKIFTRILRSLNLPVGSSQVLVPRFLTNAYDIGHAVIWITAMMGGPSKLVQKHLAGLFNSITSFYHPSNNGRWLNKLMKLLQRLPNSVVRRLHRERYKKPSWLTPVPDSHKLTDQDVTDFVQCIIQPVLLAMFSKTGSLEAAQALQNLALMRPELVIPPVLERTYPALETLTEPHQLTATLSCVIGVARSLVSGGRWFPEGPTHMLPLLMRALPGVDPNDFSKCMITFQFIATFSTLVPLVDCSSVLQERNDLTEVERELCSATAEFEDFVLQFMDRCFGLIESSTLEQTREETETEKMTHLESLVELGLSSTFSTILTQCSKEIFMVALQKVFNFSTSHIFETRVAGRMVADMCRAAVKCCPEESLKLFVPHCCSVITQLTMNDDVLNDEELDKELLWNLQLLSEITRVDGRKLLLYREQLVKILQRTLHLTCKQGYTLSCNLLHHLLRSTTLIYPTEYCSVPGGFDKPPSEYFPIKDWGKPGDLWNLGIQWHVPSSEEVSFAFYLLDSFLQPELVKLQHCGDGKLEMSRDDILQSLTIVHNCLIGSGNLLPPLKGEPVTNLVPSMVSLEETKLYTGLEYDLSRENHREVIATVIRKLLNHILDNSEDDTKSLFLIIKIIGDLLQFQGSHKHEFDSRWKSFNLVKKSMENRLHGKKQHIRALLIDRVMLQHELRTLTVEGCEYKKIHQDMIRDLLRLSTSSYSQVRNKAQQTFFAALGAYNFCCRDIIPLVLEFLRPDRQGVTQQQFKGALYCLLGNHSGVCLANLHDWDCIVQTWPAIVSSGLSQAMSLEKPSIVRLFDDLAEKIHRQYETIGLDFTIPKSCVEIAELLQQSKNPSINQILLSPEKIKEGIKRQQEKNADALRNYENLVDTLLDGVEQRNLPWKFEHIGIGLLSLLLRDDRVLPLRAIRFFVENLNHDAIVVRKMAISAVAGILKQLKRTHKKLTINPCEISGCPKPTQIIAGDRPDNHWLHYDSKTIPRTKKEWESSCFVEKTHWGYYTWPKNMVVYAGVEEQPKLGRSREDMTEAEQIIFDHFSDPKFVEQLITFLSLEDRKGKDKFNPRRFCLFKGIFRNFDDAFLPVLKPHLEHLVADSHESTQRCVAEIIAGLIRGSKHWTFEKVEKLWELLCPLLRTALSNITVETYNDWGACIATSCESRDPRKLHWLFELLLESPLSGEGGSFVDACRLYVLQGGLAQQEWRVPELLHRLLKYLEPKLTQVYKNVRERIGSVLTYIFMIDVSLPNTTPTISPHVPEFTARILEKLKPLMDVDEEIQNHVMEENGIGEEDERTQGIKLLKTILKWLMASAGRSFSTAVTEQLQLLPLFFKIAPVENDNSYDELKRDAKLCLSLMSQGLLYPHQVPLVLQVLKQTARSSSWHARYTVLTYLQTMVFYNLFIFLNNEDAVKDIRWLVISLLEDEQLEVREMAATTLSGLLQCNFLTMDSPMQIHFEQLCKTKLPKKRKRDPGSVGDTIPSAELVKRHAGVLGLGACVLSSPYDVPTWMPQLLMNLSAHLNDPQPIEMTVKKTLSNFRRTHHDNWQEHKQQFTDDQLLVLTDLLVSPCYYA
UniProt Q9UJ41: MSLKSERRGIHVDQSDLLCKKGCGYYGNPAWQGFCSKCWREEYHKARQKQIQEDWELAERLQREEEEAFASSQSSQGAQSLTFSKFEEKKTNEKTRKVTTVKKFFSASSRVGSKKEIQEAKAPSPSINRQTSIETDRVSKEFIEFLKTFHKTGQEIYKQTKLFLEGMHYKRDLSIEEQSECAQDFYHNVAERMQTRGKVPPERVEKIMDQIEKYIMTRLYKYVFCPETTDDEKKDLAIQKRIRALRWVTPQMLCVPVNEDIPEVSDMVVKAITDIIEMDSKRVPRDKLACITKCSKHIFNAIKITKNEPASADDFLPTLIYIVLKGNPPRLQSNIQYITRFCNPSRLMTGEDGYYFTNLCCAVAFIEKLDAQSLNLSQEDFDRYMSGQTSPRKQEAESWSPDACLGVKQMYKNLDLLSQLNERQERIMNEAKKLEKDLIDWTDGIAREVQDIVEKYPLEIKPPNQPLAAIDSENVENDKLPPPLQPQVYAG
UniProt Q15042: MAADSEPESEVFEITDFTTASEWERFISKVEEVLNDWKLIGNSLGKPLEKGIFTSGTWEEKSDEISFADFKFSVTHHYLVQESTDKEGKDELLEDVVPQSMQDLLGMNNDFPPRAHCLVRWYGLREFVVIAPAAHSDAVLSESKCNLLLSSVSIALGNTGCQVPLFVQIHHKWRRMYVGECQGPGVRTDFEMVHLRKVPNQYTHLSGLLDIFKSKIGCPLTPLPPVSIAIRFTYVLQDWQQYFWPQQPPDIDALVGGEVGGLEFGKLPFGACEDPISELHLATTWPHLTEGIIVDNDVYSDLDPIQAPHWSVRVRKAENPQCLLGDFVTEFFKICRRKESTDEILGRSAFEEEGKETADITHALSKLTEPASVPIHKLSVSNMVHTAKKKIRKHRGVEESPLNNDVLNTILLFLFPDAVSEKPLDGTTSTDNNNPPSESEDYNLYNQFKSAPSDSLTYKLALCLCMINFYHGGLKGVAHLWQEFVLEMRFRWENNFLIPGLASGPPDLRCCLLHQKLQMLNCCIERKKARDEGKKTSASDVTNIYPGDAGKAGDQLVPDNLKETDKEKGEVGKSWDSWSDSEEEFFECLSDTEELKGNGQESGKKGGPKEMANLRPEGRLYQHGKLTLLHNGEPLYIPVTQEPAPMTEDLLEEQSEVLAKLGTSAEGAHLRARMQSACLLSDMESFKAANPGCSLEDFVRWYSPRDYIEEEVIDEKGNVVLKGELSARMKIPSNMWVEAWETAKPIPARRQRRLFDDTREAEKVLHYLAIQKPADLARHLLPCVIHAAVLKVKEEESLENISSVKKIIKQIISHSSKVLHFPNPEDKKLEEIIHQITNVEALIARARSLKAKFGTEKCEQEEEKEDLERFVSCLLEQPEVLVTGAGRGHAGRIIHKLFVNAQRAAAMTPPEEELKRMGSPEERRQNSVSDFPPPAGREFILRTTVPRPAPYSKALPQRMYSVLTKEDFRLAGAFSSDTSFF
UniProt P18031, 200-221: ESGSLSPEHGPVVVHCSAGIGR
UniProt Q9NS91, 384-406: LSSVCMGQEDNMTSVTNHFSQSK
UniProt Q9H0R6: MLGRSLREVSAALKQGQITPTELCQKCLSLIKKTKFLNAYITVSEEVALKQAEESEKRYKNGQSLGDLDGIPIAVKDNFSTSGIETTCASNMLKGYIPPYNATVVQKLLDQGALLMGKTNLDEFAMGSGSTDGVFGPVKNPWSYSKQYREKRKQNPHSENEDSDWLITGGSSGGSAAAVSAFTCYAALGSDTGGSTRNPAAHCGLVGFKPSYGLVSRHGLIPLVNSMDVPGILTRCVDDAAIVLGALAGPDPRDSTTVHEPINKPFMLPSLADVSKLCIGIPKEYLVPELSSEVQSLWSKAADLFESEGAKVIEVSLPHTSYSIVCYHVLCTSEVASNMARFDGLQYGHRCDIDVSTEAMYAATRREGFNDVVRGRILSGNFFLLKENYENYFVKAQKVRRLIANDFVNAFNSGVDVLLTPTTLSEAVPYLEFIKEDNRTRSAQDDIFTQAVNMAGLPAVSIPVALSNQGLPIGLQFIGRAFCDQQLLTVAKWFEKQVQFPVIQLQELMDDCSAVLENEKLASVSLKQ
UniProt Q9Y3E5: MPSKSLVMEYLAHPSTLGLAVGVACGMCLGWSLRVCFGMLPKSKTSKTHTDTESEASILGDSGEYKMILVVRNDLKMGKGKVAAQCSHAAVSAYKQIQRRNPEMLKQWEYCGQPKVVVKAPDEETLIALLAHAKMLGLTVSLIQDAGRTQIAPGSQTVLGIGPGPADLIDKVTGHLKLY
UniProt P25786: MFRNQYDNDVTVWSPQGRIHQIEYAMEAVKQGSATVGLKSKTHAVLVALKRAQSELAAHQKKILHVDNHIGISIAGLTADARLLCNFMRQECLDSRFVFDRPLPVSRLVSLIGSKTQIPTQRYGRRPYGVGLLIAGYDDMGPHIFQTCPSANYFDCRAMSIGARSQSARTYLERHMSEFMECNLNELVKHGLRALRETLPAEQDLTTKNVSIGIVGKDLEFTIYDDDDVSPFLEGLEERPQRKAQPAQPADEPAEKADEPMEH
UniProt Q96PZ0: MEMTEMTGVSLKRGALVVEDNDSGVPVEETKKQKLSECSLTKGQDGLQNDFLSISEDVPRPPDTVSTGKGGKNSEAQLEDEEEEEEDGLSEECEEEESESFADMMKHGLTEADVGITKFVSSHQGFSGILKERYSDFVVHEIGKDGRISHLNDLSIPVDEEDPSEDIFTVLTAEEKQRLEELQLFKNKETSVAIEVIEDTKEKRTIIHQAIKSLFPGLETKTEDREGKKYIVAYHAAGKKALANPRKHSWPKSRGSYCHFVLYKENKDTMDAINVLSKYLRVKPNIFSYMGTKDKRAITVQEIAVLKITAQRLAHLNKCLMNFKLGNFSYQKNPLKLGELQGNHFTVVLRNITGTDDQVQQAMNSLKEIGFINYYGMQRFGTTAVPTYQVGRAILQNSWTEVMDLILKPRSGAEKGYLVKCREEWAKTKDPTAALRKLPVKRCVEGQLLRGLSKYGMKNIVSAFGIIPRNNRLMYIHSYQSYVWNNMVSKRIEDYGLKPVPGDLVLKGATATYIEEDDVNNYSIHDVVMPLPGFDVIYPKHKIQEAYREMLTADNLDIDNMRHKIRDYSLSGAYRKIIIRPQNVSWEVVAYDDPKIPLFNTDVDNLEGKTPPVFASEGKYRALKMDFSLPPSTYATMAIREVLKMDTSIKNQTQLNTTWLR

Tests used:
[1] = compound: ClCC(=O)N[C@@H]1CCCc2ccccc12; assay: log2 mean competition ratio of IA-DTB cysteine labelling (DMSO/compound) (log2 ratio); higher = stronger cysteine engagement by compound; settings: treatment time: 4 h, cell line lysate: HEK293T
Description: (§1)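 IA-DTB competitive cysteine chemoproteomics in HEK293T RIPA lysate. Lysates were treated with compound 29 or 30 at 50 or 200 µM for 4 h, then IA-DTB (500 µM, 1 h), trypsin-digested, NeutrAvidin-enriched and analysed by diaPASEF. Competition ratio = intensity DMSO / intensity compound (n=4 treated, n=64 DMSO); binding: mean log2 CR ≥ 1 and p ≤ 0.05 plus QC filters. Target is the cysteine site.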

[2] = compound: ClCC(=O)N[C@H]1CCCc2ccccc12; assay: as above; settings: treatment time: 4 h, cell line lysate: HEK293T
Description: as §1

| Target | log2 mean competition ratio ([1]; 50 µM) | log2 mean competition ratio ([1]; 200 µM) | log2 mean competition ratio ([2]; 50 µM) | log2 mean competition ratio ([2]; 200 µM) |
| --- | --- | --- | --- | --- |
| RABGAP1 C155 (UniProt Q9Y3P9) | 0.446 | 0.315 | 0.235 | 0.0143 |
| PTCH1 C699 | -0.0288 | -0.243 | -0.571 | -0.0491 |
| PSMA3 C42 | -0.0397 | 0.103 | -0.389 | 0.0231 |
| PSME4 C1100 (UniProt Q14997) | 0.032 | -0.0666 | -0.232 | 0.0565 |
| RABGEF1 C404 (UniProt Q9UJ41) | -0.303 | 0.286 | -0.384 | 0.13 |
| PRRC2B C246 | -0.216 | -0.273 | 0.0381 | -0.334 |
| RAB3GAP1 C858 (UniProt Q15042) | -0.103 | -0.197 | -0.254 | -0.314 |
| PTPN1 C215 (UniProt P18031) | 0.0524 | 0.176 | 0.0877 | -0.0238 |
| RAD18 C388 (UniProt Q9NS91) | 0.247 | 0.207 | -0.413 | 0.106 |
| RACK1 C168 | 0.608 | -0.26 | 0.797 | -0.232 |
| QRSL1 C236 (UniProt Q9H0R6) | -0.198 | -0.296 | -0.141 | 0.009 |
| PTRH2 C36 (UniProt Q9Y3E5) | 0.0892 | -1.22 | 0.0551 | -0.735 |
| PSMA1 C92 (UniProt P25786) | -0.24 | 0.335 | 0.132 | 0.414 |
| PRRC2C C2340 (UniProt Q9Y520) | -0.165 | 0.157 | 0.129 | 0.287 |
| PYGO1 C317 | -0.462 | -0.0192 | -0.145 | 0.0788 |
| PUS7 C421 (UniProt Q96PZ0) | 0.15 | -0.185 | -0.00877 | -0.057 |
| QARS1 C358, A0A0U1RR66 | 0.379 | -0.174 | 0.365 | -0.205 |

Nothing new here: entries from further up.

| Target | log2 mean competition ratio ([1]; 50 µM) | log2 mean competition ratio ([1]; 200 µM) | log2 mean competition ratio ([2]; 50 µM) | log2 mean competition ratio ([2]; 200 µM) |
| --- | --- | --- | --- | --- |
| PYGO1 C317 | -0.462 | -0.0192 | -0.145 | 0.0788 |
| PUS7 C421 (UniProt Q96PZ0) | 0.15 | -0.185 | -0.00877 | -0.057 |
